Where two headings read alike, the source gives them in different places. At least one peptide structure holds a part that was inferred or is arguable (an end, a ring closure or a residue). At least one structure is not confirmed: it was looked up by name or label, or the drawing left a doubt. No end group written: not given here.
Tested on: unilateral 6-hydroxydopamine (6-OHDA) lesioned rat
Format: in vivo, Male Sprague-Dawley rats
Excerpt: The potential antiparkinsonian activity of apitoxin (bee venom; Alyostal®), and certain of its constituents such as apamin, melittin, hyaluronidase, and others were investigated in the standard, unilateral 6-hydroxydopamine (6-OHDA) lesioned rat model, in animals responding to an apomorphine challenge, according to the method previously described with minor modifications (Oh J D, Chartisathian K, Ahmed S M, and Chase T N. (2003) J of Neurosci. Res. 72, 768-780, Oh J D, Chartisathian K, Chase T N and Butcher L L, (2000) Brain Res. 853, 174-185, Oh J D and Chase T N. (2002) Amino Acids 23, 133-139, Oh J D, Del Dotto P, Chase T N. (1997) Neurosci Lett. 228, 5-8, Oh J D, Geller A I, Zhang G, Chase T N. (2003) Br. Res. 971, 18-30, Oh J D, Russell D, Vaughan C L and Chase T N. (1998) Br. Res. 813, 150-159.). Conventional anti-parkinsonian dopamine (DA) agonists, apomorphine, amphetamine, and L-dopa were used as comparator drugs. Control animals received vehicle, phosphate buffered saline (PBS). Rotation (turning) behavior in response to drug challenge was used as a predictor of anti-parkinson activity. All compounds or vehicle were administered either subcutaneously (s.c.) or intraperitonealy (i.p.).
The anti-parkinson activity of various test substances was studied as previously described 1-6. Male Sprague-Dawley rats weighing approximately 300 g were housed with free access to food and water. Under […] (50 mg/kg, i.p.), the nigrostriatal pathway was unilaterally lesioned by administering 6-OHDA HCl (8 μg in 4 μL of saline with 0.02% ascorbate) into the left medial forebrain bundle (AP −5.0, L 1.3, V 8.0 from the dura mater). Following surgery, rats were challenged with apomorphine (0.1 mg/kg, s.c.), to confirm the lesion of nigro-striatal pathway. Rats that responded to apomorphine were kept for further testing.
Rats received test drugs, comparator drugs, or vehicle on post-surgical Week 3 following 6-OHDA lesioning and subsequently for additional […] (Week 4-10 post-surgery).
Rotation behavior was measured by placing rats in a rotometer and measuring turning behavior over 5-minute periods (5-min bins). To measure rotation behavior, each animal was placed at least 10 minutes prior to the drug or vehicle administration into a rotometer and turning was measured. Animals then received test drugs, and turning behavior was measured as described above for 4 to 12 hours post-drug administration.

[1] = Apamin alone, dose range 0.75-1.50 mg/kg

| Molecule | Rotational Response Contralateral (Apamin 0.5 mg/kg alone) | Rotational Response Ipsilateral (Apamin 0.5 mg/kg alone) | Rotational Response Contralateral (Apamin 1 mg/kg alone) | Rotational Response Ipsilateral (Apamin 1 mg/kg alone) | Rotational Response Contralateral [1] | Rotational Response Ipsilateral [1] | onset of rotatory behavior (apamin at doses >1 mg/kg i.p.) | duration of rotatory behavior (apamin at doses >1 mg/kg i.p., longer than 12 hours not studied) | doses at which little or no turning behavior above the baseline occurred (apamin i.p.) | duration of turning responses (ipsilateral and contralateral) (apamin ip or sc, between about 1 and 2 mg/kg) | magnitude of rotational response versus dose (apamin, for up to 2.0 mg/kg dose) | dose of apamin required for a rotatory response approximating that of apitoxin, versus dose expected from apamin concentration in apitoxin (greater than expected) | Rotational Response Contralateral (HTGAVLAGV alone, 1-10 mg/kg) | Rotational Response Ipsilateral (HTGAVLAGV alone, 1-10 mg/kg) | turning behavior or other motor activity above baseline (spontaneous rotation) (HTGAVLAGV at 1 to 10 mg/kg) | ability similar to apamin to induce a conspicuous turning response (apitoxin component given alone) |
| --- | --- | --- | --- | --- | --- | --- | --- | --- | --- | --- | --- | --- | --- | --- | --- | --- |
| CC(C)C[C@@H]1NC(=O)[C@H](C)NC(=O)[C@H]([C@@H](C)O)NC(=O)[C@H](CCC(=O)O)NC(=O)[C@@H]2CCCN2C(=O)[C@H](C)NC(=O)[C@H](CCCCN)NC(=O)[C@@H]2CSSC[C@@H](C(=O)N[C@@H](CCC(N)=O)C(=O)N[C@@H](CCC(N)=O)C(=O)N[C@@H](Cc3cnc[nH]3)C(N)=O)NC(=O)[C@H](CCCNC(=N)N)NC(=O)[C@H](CCCNC(=N)N)NC(=O)[C@H](C)NC(=O)[C@H](CSSC[C@H](N)C(=O)N[C@@H](CC(N)=O)C(=O)N2)NC1=O [Apamin, apamin] | 5 number of turns in 12 hours | 40 number of turns in 12 hours | 30 number of turns in 12 hours | 50 number of turns in 12 hours | 10-100 number of turns in 12 hours | 50-120 number of turns in 12 hours | 1 to 2 h | at least 12 hours | < 0.75 mg/kg | at least 12 hours | increased in a dose-related fashion | about 200 fold | – | – | – | – |
| HTGAVLAGV [HTGAVLAGV, reference compound] | – | – | – | – | – | – | – | – | – | – | – | – | 5 number of turns in 12 hours | 40 number of turns in 12 hours | little or no turning behavior or other motor activity | none |

From patent publication US20140356343A1, “COMPOSITION FOR TREATING PARKINSON'S DISEASE” (priority 2011, published 2014)
